The values that follow come from article PMC8544692.

Amino acid sequences for entries named in this document (tags omitted).
UniProt Q12834: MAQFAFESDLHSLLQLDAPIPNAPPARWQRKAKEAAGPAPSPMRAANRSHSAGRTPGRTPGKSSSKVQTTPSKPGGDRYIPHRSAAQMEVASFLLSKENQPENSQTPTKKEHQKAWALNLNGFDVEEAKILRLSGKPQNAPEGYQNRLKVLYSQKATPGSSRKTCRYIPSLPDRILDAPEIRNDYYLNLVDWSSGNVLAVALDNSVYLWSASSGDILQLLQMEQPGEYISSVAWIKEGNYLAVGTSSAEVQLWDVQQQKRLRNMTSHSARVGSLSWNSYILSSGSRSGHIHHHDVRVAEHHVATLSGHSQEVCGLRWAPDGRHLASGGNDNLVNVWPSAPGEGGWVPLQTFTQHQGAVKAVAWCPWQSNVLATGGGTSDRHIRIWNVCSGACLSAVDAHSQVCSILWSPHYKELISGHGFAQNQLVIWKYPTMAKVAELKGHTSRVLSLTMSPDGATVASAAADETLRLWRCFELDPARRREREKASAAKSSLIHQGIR

These are yes or no findings as the source states them, for the method shown. Binding seen in cells or lysates may run through a third protein. Some results given as binding are weak or reduced against the parent protein; the word gives no strength. Sequences can lack the tags named with a protein.

The target of the assay is T1, phosducin-like protein 1 (PhLP1), c-Myc-tagged (UniProt Q13371).
T1 sequence: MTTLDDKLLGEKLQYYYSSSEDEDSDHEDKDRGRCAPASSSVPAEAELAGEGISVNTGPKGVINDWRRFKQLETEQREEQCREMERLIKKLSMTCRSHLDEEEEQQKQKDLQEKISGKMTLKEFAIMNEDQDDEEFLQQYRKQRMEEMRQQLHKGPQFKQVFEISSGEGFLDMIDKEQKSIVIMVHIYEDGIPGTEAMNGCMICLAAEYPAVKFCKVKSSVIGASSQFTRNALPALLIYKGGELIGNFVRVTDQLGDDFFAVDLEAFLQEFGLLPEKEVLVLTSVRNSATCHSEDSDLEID
Kind of assay: co-IP; PhLP1-Myc immunoprecipitated with anti-Myc antibodies and Protein A/G beads from lysates of co-transfected CHO-K1 cells; blot with anti-V5.

Consider “Cell Division Cycle 20 protein (CDC20), V5-tagged (from UniProt Q12834 1-499)”, for which the binding result is “binds”.

B1: Transducin Beta-Like Protein 2 (TBL2), V5-tagged (protein, UniProt Q9Y4P3 1-447)
chain: MELSQMSELMGLSVLLGLLALMATAAVARGWLRAGEERSGRPACQKANGFPPDKSSGSKKQKQYQRIRKEKPQQHNFTHRLLAAALKSHSGNISCMDFSSNGKYLATCADDRTIRIWSTKDFLQREHRSMRANVELDHATLVRFSPDCRAFIVWLANGDTLRVFKMTKREDGGYTFTATPEDFPKKHKAPVIDIGIANTGKFIMTASSDTTVLIWSLKGQVLSTINTNQMNNTHAAVSPCGRFVASCGFTPDVKVWEVCFGKKGEFQEVVRAFELKGHSAAVHSFAFSNDSRRMASVSKDGTWKLWDTDVEYKKKQDPYLLKTGRFEEAAGAAPCRLALSPNAQVLALASGSSIHLYNTRRGEKEECFERVHGECIANLSFDITGRFLASCGDRAVRLFHNTPGHRAMVEEMQGHLKRASNESTRQRLQQQLTQAQETLKSLGALKK
B1: the binding result was “binds”.
